Assay results: patent US20080050370A1
Where a chain is given by its changes, count along the chain named. Numbers in names are those of the source. No constants are given. Whether binding was seen depends on the method and setting. Some results given as binding are weak or reduced against the parent protein; the word gives no strength. Values belong to the binder of their own block, whether it stands above or below them.

Sequences of proteins named here, by UniProt entry; tags and fusion partners are left off. Residues count along the entry.
UniProt P36941, residues 31-227: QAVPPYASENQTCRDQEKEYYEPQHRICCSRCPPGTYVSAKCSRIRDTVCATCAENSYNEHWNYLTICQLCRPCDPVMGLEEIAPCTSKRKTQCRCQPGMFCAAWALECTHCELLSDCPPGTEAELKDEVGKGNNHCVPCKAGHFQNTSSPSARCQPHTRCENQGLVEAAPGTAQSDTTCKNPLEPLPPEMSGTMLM

Legend:
sLTβR = sLTβR (UniProt P36941); assay: SPR (Biacore)
LTβR-Ig [1] = target: LTβR-Ig (UniProt P36941); assay: thermal challenge assay: E. coli supernatant heated at the temperature on the x axis and cleared, remaining binding to plate-coated LTβR-Ig read by DELFIA (Eu-anti-His6)
LTβR-Ig [2] = target: LTβR-Ig (UniProt P36941); assay: Thermal challenge of E. coli supernatant, then DELFIA on plate-coated LTβR-Ig with Eu-labelled anti-His6 detection. The x axis is the challenge temperature.

B1: BHA10 VH44:VL100/(Gly4Ser)4 scFv (scFv)
scFv: QVQLVQSGAEVKKPGSSVKVSCKASGYTFTTYYLHWVRQAPGQCLEWMGWIYPGNVHAQYNEKFKGRVTITADKSTSTAYMELSSLRSEDTAVYYCARSWEGFPYWGQGTTVTVSSGGGGSGGGGSGGGGSGGGGSDIQMTQSPSSLSASVGDRVTITCKASQNVGINVAWYQQKPGKAPKSLISSASYRYSGVPSRFSGSGSGTDFTLTISSLQPEDFATYFCQQYDTYPFTFGCGTKVEIK
binding (sLTβR): binds
binding (LTβR-Ig [1]): binds

B5: BHA10 VH44/VL100 scFv (scFv)
scFv, VH-(Gly4Ser)3-VL: QVQLVQSGAEVKKPGSSVKVSCKASGYTFTTYYLHWVRQAPGQCLEWMGWIYPGNVHAQYNEKFKGRVTITADKSTSTAYMELSSLRSEDTAVYYCARSWEGFPYWGQGTTVTVSSGGGGSGGGGSGGGGSDIQMTQSPSSLSASVGDRVTITCKASQNVGINVAWYQQKPGKAPKSLISSASYRYSGVPSRFSGSGSGTDFTLTISSLQPEDFATYFCQQYDTYPFTFGCGTKVEIK
modifications: disulfide bond between VH44 Cys and VL100 Cys (Kabat)
binding (LTβR-Ig [1]): binds

Continued, values first:

binding (LTβR-Ig [2]): binds
B2: BHA10 scFv VH-P101D, (G4S)4 linker (scFv, name in Kabat numbering)
scFv: B1 scFv with C44G, P104D, C236Q

binding (LTβR-Ig [1]): binds
binding (LTβR-Ig [2]): binds
B3: BHA10 scFv VL-S46L, (G4S)4 linker (scFv)
scFv: QVQLVQSGAEVKKPGSSVKVSCKASGYTFTTYYLHWVRQAPGQGLEWMGWIYPGNVHAQYNEKFKGRVTITADKSTSTAYMELSSLRSEDTAVYYCARSWEGFPYWGQGTTVTVSSGGGGSGGGGSGGGGSGGGGSDIQMTQSPSSLSASVGDRVTITCKASQNVGINVAWYQQKPGKAPKLLISSASYRYSGVPSRFSGSGSGTDFTLTISSLQPEDFATYFCQQYDTYPFTFGQGTKVEIKDDDDKSFLEQKLISEEDLNSAVDHHHHHH

binding (LTβR-Ig [2]): binds
B4: BHA10 scFv VH-V55G, (G4S)4 linker (scFv)
scFv: B3 scFv with V56G, L182S
